Results are given in words; binding and its absence hold for the method and conditions named. In cells and extracts the contact can be indirect. Some entries that bind do so weakly or less than the wild type. One block for each molecule: values may come before it.
What was measured:
[1] = target: Strep-TM4SF5 (transmembrane 4 L6 family member 5, Strep-tagged) (UniProt O14894); test: co-IP; lysates of Chang cells transfected with Strep-TM4SF5 or control Strep plasmid, precipitated by the Strep tag on beads, blotted for CD151, CD63 and the tag; lysis buffer 10 mM Tris pH 7.5, 150 mM NaCl, 1 mM CaCl2, 1 mM MgCl2, 1% Brij97
[2] = target: T1, CD151 (Tspan24), endogenous (human (endogenous in Chang, HCC827, Chang-TGFβ1)) (UniProt P48509); test: co-IP; extracts of HCC827 cells transfected with FLAG-TM4SF5 or FLAG-mock, immunoprecipitated with anti-CD151 antibody, blotted for FLAG and CD151; 1% Brij97 lysis buffer
T1 sequence: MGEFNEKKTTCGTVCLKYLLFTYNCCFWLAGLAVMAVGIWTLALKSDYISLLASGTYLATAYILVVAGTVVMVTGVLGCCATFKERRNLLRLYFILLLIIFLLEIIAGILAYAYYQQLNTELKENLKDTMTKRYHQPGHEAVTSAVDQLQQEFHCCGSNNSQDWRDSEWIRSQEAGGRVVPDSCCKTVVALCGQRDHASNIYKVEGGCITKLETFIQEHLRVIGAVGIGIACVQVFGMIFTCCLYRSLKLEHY

Sequences of proteins named here, by UniProt entry; tags and fusion partners are left off.
UniProt O14894: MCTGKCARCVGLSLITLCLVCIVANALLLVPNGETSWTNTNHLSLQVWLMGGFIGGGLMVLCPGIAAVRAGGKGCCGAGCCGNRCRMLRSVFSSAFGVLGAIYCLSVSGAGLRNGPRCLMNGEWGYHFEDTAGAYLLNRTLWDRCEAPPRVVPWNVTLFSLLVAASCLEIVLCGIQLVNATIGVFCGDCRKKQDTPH
UniProt P08962: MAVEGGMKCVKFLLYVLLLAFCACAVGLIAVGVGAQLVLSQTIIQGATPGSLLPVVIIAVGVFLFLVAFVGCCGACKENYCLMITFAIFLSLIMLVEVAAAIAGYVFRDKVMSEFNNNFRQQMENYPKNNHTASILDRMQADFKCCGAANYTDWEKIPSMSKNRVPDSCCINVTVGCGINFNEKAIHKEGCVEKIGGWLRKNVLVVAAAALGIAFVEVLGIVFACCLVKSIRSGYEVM

[3] = target: T1, CD151 (Tspan24), endogenous (human (endogenous in Chang, HCC827, Chang-TGFβ1)); test: co-IP; extracts of Chang-TGFβ1 cells (both proteins endogenous), immunoprecipitated with normal IgG or anti-CD151 antibody, blotted for CD151 and TM4SF5; 1% Brij97 lysis buffer

binding [1]: no binding
Molecule: CD63 (Tspan30), endogenous (from UniProt P08962 1-238)

binding [2]: binds
Molecule: FLAG-TM4SF5 (transmembrane 4 L6 family member 5, FLAG-tagged) (from UniProt O14894 1-197)

binding [3]: binds
Molecule: Transmembrane 4 L6 family member 5 (TM4SF5), endogenous (from UniProt O14894 1-197)

binding [1]: binds
B1: CD151 (Tspan24), endogenous (protein, UniProt P48509 1-253)
chain: T1 sequence

Reference: PMC4102591
